Source: PubChem BioAssay AID1671190 (National Center for Advancing Translational Sciences (NCATS), 2021)
Hit rate of the full screen: of about 580,000 compounds, about 6,100 (1.1%) were called active. The inconclusive results got no clear call from the source; some entries with a clear call stand among them for comparison. Calls follow the shape of the dose curve; as a rule, active = well fitted inhibition curve with a large enough effect; inconclusive = small, poorly fitted or top-dose-only effect, or another doubt; inactive = no such curve, though single readings can be large or run the other way. Potencies of inconclusive entries are doubtful fits and often do not repeat.

Protein sequences, listed by entry. Tags and fused reporters are not part of them. Lines headed by an entry give the natural chain unless they say otherwise; changes in a name come on top.
UniProt P18054: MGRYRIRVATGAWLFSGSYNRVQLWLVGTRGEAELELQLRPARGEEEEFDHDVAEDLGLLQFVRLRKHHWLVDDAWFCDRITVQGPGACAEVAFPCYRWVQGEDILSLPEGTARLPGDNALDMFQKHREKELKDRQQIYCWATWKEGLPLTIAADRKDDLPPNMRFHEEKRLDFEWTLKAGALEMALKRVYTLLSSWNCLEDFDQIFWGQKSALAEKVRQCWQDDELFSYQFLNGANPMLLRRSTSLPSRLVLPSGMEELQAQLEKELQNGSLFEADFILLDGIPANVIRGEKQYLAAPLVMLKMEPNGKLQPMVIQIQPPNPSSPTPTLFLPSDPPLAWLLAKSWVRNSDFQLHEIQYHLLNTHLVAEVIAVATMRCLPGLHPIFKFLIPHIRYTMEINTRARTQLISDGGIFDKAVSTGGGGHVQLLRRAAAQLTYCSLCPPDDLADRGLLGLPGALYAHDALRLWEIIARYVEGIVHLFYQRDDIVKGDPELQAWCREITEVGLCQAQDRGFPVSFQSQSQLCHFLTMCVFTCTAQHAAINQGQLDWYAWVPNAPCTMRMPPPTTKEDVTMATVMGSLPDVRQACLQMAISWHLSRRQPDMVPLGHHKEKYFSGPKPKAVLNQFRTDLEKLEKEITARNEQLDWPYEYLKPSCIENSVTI

These compounds were tested against Polyunsaturated fatty acid lipoxygenase ALOX12 (Homo sapiens) (UniProt P18054) (assay: Primary qHTS assay for inhibitors of human arachidonate 12S-lipoxygenase (ALOX12): Round 2). Conditions: purified 12hLO, xylenol orange hydroperoxide absorbance; activity change, negative = inhibition: at 108 µM (top of the series) unless noted.
Outline: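 Purified human 12hLO (150 nM final) in 25 mM Hepes, 0.01% Triton X-100, pH 7.0 was preincubated 15 min at room temperature with compound. Then 40 uM arachidonic acid was added, 30 min. Hydroperoxide was read by Fe-XO absorbance ratio 573/405 nm.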
% is scaled to controls: 0 for no effect and ±100 for the full control effect; potency is read from the fitted curve at half-maximal effect.

SMILES | Potency | activity change, negative = inhibition
O=C(O)c1c(C(=O)O)c2ccccc2[nH]c1=O | inconclusive: 70.8 µM [inhibitor, partial curve, poor fit] | –
O=C(Nc1ccc(Oc2ccccc2)cc1)O[C@@H]1CO[C@H]2[C@@H]1OC[C@@H]2NS(=O)(=O)c1ccc2ccccc2c1 | inconclusive: 11.2 µM [inhibitor, full curve] | –
O=S(=O)(CCCc1ccccc1)c1ncn[nH]1 | inconclusive: 31.6 µM [inhibitor, partial curve, poor fit] | –
Cc1cccc(SCC(=O)Nc2ccc3c(c2)OCCO3)c1 | inconclusive: 126 µM [inhibitor, single point] | –
O=S(=O)(NC(=S)NC1CCCCC1)c1cccs1 | inconclusive: 8.91 µM [inhibitor, full curve, poor fit] | –
O=C(CC1CCCCC1)NCc1ccccc1 | inconclusive: 89.1 µM [inhibitor, single point] | –
CCOC(=O)C1=C(C)N(C)C(=O)NC1c1ccc(Br)s1 (centres undefined) | inactive | –
Cc1ccc(-c2cc3c(=O)n(CCNC(=O)Cc4ccsc4)ccn3n2)c(C)c1 | inconclusive: 31.6 µM [inhibitor, full curve] | –
Cc1cc2c3c(c1)C1(C(=O)N3C(C)(C)CC2C)C(C#N)=C(N)Oc2cc(O)ccc21 (centres undefined) | inconclusive: 44.7 µM [inhibitor, partial curve, poor fit] | –
C=CCn1c(O)c(CN2CCCCC2)c(C)c(C#N)c1=O | inactive | –
COCCN(CCOC)C(=O)c1cc2c(=O)n3ccccc3nc2s1 | inactive | –
Cc1cc(CN2CCCC(CCNC(=O)C3(N)CC3)C2)oc1C (centres undefined) | inconclusive: 8.91 µM [inhibitor, full curve, poor fit] | –
COc1ccc(CNC(=O)C2=C(c3ccccc3)c3cc(Cl)ccc3S(=O)(=O)N2C)c(OC)c1 | inconclusive: 70.8 µM [inhibitor, partial curve, poor fit] | –
Cc1ccc(/C(O)=C2\C(=O)C(=O)NC2c2ccc(Br)cc2)cc1 (centres undefined) | inactive | –
Nc1ccc(S(=O)(=O)NCc2ccccn2)cc1 | inconclusive: 5.62 µM [inhibitor, full curve, poor fit] | –
CN(CCc1ccccn1)Cc1ccc(Cl)c(Cl)c1 | inconclusive: 0.251 µM [inhibitor, full curve, poor fit] | –
CC(C)c1ccc(C2N3CC4(C)CN2CC(c2ccccc2)(C3)C4=O)cc1 (centres undefined) | inconclusive: 12.6 µM [inhibitor, full curve, poor fit] | –
OC1(CN2CCC(CCn3cccn3)CC2)CNCCOC1 (centres undefined) | inconclusive: 7.94 µM [inhibitor, full curve] | –
Cc1ccc2nc3sc(C(=O)N4CCN(c5cccc(C(F)(F)F)c5)CC4)cc3cc2c1 | inactive | –
CCN(c1ccccc1)S(=O)(=O)c1ccc(OC)c(NC(=O)c2cc(F)c(F)c(F)c2F)c1 | inconclusive: 141 µM [inhibitor, partial curve, poor fit] | –
COc1ccc(OCCCC(=O)Nc2cc([N+](=O)[O-])ccc2C)cc1 | inconclusive: 50.1 µM [inhibitor, partial curve, poor fit] | –
Cc1nn(-c2ccccc2)c(C)c1CN(C)S(=O)(=O)c1cc(F)cc(F)c1 | inconclusive: 10 µM [inhibitor, full curve, poor fit] | –

SMILES | Potency | activity change, negative = inhibition
COc1ccc(NC(=S)N2CCN(c3ccc4c(c3)C3CCN(C(=O)OCc5ccccc5)C4C3)CC2)c(OC)c1 (centres undefined) | inconclusive: 39.8 µM [inhibitor, partial curve, poor fit] | –
CCOC(=O)c1scc(-c2ccccc2)c1S(=O)(=O)Nc1ccccc1F | inconclusive: 100 µM [inhibitor, partial curve, poor fit] | –
COc1ccc(/C=C/CN2CCC(C(=O)NC(c3ccc(F)cc3)c3ccc4ccccc4n3)CC2)cc1 (centres undefined) | inconclusive: 79.4 µM [inhibitor, partial curve, poor fit] | –
O=C(CCc1nc2ccccc2c(=O)[nH]1)Nc1ccc(Cl)c(Cl)c1 | inconclusive: 44.7 µM [inhibitor, partial curve, poor fit] | –
COc1ccccc1/C=C/C(=O)Oc1ccc(Cl)c(Cl)c1 | inconclusive: 25.1 µM [inhibitor, partial curve, poor fit] | –
COc1ccc([C@@H]2[C@@H](C(=O)N3CCCC3)CC(=O)N2C(=O)/C=C/c2ccccc2)cc1 | inactive | –
C=CCSc1nsc(NC(=O)Nc2cccc(C(C)=O)c2)n1 | inconclusive: 2 µM [inhibitor, full curve, poor fit] | –
COc1cccc(CN(Cc2cccnc2)C(=O)C2CNCCO2)c1OC (centres undefined) | inconclusive: 11.2 µM [inhibitor, full curve, poor fit] | –
Cc1cc(C)c(-c2cc(-c3ccccc3)c3ccccc3n2)cc1C | inconclusive: 31.6 µM [inhibitor, partial curve, poor fit] | –
CC(C)N(Cc1cccc(Cl)c1)S(=O)(=O)c1cnn(C)c1 | inconclusive: 28.2 µM [inhibitor, partial curve, poor fit] | –
C[C@H](c1ccccc1)N1C[C@H](COCc2ccccc2)Oc2cc(N3CC[C@@H](N(C)C)C3)ccc2S1(=O)=O | inconclusive: 31.6 µM [inhibitor, partial curve, poor fit] | –
CCN(CC)CCNC(=S)Nc1ccc(F)cc1 | inactive | –
COc1cc(CCc2ccc3c(c2)OCO3)oc(=O)c1 | inconclusive: 63.1 µM [inhibitor, partial curve, poor fit] | –
COc1ccc(OC)c(CNC(=O)C2CCN(c3cnc4nccnc4c3)CC2)c1 | inconclusive: 31.6 µM [inhibitor, partial curve, poor fit] | –
CC(C)(C)C(=O)Nc1ccc2oc(-c3cncc(Br)c3)nc2c1 | inactive | –
Cc1cccc[n+]1CC(=O)/C=C1\N(C)c2ccccc2C1(C)C | – | inconclusive: -33.6% [inhibitor]
Cc1ccc(NC(=O)CCc2ncc(-c3ccccc3)o2)c(O)c1 | inactive | –
CN(C)C(CNC(=O)c1ccc(Br)o1)c1ccccc1 (centres undefined) | – | inconclusive: -30.6% [inhibitor]
O=C(Nc1cnn(Cc2ccc(Cl)c(Cl)c2)c1)C12CC3CC(CC(C3)C1)C2 | inconclusive: 39.8 µM [inhibitor, partial curve, poor fit] | –
CC(C)C(NC(=O)c1ccccc1F)C(=O)NCc1cnn(-c2ccccc2)c1 (centres undefined) | inconclusive: 89.1 µM [inhibitor, single point] | –
COCCn1c(=O)c(-c2ccc(F)cc2)nc2cnc(Nc3cccc(OC)c3)nc21 | inconclusive: 100 µM [inhibitor, partial curve, poor fit] | –
O=C(O)c1cccc(NC(=O)c2ccc(Cl)s2)c1 | inactive | –

Random excerpt: three compounds from above.
SMILES | Potency | activity change, negative = inhibition
Cc1cc2c3c(c1)C1(C(=O)N3C(C)(C)CC2C)C(C#N)=C(N)Oc2cc(O)ccc21 (centres undefined) | inconclusive: 44.7 µM [inhibitor, partial curve, poor fit] | –
O=S(=O)(CCCc1ccccc1)c1ncn[nH]1 | inconclusive: 31.6 µM [inhibitor, partial curve, poor fit] | –
COCCn1c(=O)c(-c2ccc(F)cc2)nc2cnc(Nc3cccc(OC)c3)nc21 | inconclusive: 100 µM [inhibitor, partial curve, poor fit] | –

The results go on.

SMILES | Potency | activity change, negative = inhibition
CCOc1ccc(CCNC(=O)CCc2c(C)nc3c4c(C)cc(C)nc4nn3c2C)cc1 | inconclusive: 63.1 µM [inhibitor, partial curve, poor fit] | –
Cc1cccc(C(=O)Nc2sc3c(c2C(=O)NCc2ccco2)CCCC3)c1 | inconclusive: 141 µM [inhibitor, partial curve, poor fit] | –
COc1cccc(NC(=O)NCc2ccc3c(c2)CCN3C(=O)c2ccccc2)c1 | inactive | –
CCCCCOc1ccc(CN2CCOCC2)cc1Cl | inconclusive: 1.58 µM [inhibitor, full curve, poor fit] | –
Cc1ccc(S(=O)(=O)NCCCNS(=O)(=O)c2ccccc2[N+](=O)[O-])cc1 | inconclusive: 112 µM [inhibitor, single point] | –
O=C(c1ccc2cc[nH]c2c1)N1CCCC(c2nn[nH]n2)C1 (centres undefined) | inconclusive: 12.6 µM [inhibitor, full curve, poor fit] | –
CCCOc1ccc(C(=O)CCC(=O)OCC(=O)Nc2c(C)cc(C)cc2Cl)cc1 | inconclusive: 112 µM [inhibitor, single point] | –
CN1C(=S)SC(/[N+]([O-])=C\c2ccc(Cl)cc2)C1(C)C (centres undefined) | inactive | –
C/C(=N/Nc1ccc(C(=O)O)cc1)c1ccc(O)c(O)c1O | inactive | –
CC(C(=O)N(C)Cc1ccccc1)S(=O)(=O)Cc1ccc(Cl)c(Cl)c1 (centres undefined) | inconclusive: 141 µM [inhibitor, single point] | –
O=C(NCCN1CCOCC1)c1nn2c(C(F)(F)F)cc(-c3cccs3)nc2c1Cl | inactive | –
COc1ccc2nc(NC(=O)CSc3ncccn3)sc2c1 | inconclusive: 89.1 µM [inhibitor, single point] | –
Cc1cccc(C(=O)N2CCC(c3nc(C4CC4)n[nH]3)CC2)c1C | inactive | –
O=C(NCc1ccccc1)C(c1ccc(-c2ccccc2)cc1)n1c(=O)c(-c2cc3ccccc3[nH]2)nc2ccccc21 (centres undefined) | inactive | –
O=C(Nc1ccc(F)cc1)c1sccc1SCc1cccc(C(F)(F)F)c1 | inconclusive: 35.5 µM [inhibitor, full curve, poor fit] | –
Cc1ccccc1Nc1nc2c(c(=O)[nH]c(=O)n2C)n1CC(=O)O | inconclusive: 3.16 µM [inhibitor, full curve, poor fit] | –
CC(C)Cc1c(C(C)C)sc(N)c1C#N | inconclusive: 35.5 µM [inhibitor, partial curve] | –
CCOc1ccc2nc(N/C(N)=N/S(=O)(=O)c3ccc(C)cc3)nc(C)c2c1 | inconclusive: 112 µM [inhibitor, partial curve, poor fit] | –
N#Cc1ccccc1OCCCNC1CCCC1 | inconclusive: 3.16 µM [inhibitor, full curve] | –
CCOc1ccccc1N(CC(=O)Nc1ccccc1C(=O)OC)S(C)(=O)=O | – | inconclusive: -31% [inhibitor]
